Data reported in the supplement of paper PMC10849652.
This is one part of the list.

Protein sequences, listed by entry. Tags and fused reporters are not part of them. Lines headed by an entry give the natural chain unless they say otherwise; changes in a name come on top.
UniProt Q6DCA0: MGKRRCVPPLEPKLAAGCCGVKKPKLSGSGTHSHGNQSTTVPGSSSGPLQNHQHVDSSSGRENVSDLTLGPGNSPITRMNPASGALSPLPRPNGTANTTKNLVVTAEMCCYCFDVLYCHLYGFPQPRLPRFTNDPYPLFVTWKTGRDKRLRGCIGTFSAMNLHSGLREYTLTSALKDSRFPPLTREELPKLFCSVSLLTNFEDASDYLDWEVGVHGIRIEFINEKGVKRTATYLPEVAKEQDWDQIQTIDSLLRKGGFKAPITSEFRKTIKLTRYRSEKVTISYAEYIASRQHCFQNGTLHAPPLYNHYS
UniProt P54886: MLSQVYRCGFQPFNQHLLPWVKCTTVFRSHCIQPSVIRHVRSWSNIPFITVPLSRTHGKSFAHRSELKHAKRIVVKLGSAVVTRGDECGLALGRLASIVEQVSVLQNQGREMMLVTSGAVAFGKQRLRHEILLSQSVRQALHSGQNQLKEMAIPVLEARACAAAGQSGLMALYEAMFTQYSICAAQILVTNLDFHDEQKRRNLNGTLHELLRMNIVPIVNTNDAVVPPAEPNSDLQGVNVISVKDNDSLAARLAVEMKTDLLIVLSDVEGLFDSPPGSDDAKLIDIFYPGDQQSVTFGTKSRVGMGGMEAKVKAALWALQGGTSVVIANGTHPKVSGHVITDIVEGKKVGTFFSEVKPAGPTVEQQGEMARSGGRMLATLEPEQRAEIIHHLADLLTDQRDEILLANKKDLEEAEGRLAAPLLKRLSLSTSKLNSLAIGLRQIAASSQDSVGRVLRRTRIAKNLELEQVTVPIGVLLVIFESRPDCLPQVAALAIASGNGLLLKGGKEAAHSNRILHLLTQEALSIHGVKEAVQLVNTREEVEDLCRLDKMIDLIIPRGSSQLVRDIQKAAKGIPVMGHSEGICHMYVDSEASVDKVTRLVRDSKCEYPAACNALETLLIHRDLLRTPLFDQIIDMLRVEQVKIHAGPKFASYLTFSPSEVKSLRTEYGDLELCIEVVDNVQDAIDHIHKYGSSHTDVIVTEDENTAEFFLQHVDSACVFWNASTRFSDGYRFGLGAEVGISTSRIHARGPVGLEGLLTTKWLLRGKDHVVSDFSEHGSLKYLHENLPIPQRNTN
UniProt Q9HCJ1: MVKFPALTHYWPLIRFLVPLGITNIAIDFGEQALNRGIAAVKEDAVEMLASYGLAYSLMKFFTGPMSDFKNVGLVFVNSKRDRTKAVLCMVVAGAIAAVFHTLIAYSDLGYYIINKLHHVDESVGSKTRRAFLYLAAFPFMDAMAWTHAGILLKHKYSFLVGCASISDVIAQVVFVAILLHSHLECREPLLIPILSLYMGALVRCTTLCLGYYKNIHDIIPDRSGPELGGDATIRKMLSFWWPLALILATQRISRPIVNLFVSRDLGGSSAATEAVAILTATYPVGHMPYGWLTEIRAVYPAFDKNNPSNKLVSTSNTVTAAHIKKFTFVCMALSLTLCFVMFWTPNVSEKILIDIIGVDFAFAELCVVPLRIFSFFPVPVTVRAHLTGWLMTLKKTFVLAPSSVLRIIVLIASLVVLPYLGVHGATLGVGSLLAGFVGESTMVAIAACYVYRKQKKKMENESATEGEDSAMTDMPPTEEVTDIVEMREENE
UniProt Q86W74: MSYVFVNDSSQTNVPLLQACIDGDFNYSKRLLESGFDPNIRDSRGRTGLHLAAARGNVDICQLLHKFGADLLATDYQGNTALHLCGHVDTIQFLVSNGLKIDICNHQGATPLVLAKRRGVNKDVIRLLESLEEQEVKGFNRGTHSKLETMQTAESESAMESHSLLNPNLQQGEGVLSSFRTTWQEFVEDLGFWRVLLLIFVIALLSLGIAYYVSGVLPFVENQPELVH
UniProt Q6AI12: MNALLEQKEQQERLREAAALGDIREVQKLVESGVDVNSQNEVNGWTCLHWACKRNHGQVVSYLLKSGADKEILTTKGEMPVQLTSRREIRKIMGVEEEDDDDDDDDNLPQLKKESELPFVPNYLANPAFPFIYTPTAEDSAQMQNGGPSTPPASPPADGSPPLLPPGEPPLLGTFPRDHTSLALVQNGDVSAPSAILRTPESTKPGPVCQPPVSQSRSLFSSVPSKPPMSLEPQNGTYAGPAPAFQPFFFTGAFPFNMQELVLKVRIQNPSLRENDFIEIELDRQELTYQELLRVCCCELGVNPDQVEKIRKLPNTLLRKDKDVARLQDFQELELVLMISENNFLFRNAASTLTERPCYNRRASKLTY
UniProt P61966: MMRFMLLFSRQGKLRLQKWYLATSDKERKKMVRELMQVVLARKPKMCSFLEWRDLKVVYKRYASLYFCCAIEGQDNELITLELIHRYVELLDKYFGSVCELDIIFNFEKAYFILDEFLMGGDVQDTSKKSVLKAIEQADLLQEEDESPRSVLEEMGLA
UniProt Q9UPM8: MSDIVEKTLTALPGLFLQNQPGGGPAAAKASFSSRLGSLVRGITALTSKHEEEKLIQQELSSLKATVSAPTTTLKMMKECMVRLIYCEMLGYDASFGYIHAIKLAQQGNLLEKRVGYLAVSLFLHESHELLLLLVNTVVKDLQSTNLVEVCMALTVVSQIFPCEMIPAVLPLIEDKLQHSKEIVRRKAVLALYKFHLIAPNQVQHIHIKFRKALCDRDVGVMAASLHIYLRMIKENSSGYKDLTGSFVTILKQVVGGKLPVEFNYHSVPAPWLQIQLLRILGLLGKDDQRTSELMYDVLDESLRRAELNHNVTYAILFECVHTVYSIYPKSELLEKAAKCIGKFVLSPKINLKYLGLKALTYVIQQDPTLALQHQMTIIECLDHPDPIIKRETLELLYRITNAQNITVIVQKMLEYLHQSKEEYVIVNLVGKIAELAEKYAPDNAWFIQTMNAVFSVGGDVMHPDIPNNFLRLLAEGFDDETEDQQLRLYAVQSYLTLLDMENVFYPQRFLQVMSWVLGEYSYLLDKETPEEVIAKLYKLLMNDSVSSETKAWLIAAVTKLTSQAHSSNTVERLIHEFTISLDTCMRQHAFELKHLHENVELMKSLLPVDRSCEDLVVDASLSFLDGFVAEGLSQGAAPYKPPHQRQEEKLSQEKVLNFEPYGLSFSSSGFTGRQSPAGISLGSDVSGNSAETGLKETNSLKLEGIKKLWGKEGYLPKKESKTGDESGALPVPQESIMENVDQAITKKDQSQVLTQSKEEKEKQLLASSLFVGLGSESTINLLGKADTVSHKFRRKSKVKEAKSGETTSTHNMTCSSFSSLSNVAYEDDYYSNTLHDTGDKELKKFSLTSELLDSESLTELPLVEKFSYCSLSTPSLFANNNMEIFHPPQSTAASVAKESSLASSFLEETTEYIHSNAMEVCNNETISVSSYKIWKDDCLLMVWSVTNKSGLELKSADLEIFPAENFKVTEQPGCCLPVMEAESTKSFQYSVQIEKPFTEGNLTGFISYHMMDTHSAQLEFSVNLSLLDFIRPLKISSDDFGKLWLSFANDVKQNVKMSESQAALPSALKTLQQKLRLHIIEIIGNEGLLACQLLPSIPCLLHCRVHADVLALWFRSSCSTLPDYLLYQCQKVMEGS
UniProt Q6UB99: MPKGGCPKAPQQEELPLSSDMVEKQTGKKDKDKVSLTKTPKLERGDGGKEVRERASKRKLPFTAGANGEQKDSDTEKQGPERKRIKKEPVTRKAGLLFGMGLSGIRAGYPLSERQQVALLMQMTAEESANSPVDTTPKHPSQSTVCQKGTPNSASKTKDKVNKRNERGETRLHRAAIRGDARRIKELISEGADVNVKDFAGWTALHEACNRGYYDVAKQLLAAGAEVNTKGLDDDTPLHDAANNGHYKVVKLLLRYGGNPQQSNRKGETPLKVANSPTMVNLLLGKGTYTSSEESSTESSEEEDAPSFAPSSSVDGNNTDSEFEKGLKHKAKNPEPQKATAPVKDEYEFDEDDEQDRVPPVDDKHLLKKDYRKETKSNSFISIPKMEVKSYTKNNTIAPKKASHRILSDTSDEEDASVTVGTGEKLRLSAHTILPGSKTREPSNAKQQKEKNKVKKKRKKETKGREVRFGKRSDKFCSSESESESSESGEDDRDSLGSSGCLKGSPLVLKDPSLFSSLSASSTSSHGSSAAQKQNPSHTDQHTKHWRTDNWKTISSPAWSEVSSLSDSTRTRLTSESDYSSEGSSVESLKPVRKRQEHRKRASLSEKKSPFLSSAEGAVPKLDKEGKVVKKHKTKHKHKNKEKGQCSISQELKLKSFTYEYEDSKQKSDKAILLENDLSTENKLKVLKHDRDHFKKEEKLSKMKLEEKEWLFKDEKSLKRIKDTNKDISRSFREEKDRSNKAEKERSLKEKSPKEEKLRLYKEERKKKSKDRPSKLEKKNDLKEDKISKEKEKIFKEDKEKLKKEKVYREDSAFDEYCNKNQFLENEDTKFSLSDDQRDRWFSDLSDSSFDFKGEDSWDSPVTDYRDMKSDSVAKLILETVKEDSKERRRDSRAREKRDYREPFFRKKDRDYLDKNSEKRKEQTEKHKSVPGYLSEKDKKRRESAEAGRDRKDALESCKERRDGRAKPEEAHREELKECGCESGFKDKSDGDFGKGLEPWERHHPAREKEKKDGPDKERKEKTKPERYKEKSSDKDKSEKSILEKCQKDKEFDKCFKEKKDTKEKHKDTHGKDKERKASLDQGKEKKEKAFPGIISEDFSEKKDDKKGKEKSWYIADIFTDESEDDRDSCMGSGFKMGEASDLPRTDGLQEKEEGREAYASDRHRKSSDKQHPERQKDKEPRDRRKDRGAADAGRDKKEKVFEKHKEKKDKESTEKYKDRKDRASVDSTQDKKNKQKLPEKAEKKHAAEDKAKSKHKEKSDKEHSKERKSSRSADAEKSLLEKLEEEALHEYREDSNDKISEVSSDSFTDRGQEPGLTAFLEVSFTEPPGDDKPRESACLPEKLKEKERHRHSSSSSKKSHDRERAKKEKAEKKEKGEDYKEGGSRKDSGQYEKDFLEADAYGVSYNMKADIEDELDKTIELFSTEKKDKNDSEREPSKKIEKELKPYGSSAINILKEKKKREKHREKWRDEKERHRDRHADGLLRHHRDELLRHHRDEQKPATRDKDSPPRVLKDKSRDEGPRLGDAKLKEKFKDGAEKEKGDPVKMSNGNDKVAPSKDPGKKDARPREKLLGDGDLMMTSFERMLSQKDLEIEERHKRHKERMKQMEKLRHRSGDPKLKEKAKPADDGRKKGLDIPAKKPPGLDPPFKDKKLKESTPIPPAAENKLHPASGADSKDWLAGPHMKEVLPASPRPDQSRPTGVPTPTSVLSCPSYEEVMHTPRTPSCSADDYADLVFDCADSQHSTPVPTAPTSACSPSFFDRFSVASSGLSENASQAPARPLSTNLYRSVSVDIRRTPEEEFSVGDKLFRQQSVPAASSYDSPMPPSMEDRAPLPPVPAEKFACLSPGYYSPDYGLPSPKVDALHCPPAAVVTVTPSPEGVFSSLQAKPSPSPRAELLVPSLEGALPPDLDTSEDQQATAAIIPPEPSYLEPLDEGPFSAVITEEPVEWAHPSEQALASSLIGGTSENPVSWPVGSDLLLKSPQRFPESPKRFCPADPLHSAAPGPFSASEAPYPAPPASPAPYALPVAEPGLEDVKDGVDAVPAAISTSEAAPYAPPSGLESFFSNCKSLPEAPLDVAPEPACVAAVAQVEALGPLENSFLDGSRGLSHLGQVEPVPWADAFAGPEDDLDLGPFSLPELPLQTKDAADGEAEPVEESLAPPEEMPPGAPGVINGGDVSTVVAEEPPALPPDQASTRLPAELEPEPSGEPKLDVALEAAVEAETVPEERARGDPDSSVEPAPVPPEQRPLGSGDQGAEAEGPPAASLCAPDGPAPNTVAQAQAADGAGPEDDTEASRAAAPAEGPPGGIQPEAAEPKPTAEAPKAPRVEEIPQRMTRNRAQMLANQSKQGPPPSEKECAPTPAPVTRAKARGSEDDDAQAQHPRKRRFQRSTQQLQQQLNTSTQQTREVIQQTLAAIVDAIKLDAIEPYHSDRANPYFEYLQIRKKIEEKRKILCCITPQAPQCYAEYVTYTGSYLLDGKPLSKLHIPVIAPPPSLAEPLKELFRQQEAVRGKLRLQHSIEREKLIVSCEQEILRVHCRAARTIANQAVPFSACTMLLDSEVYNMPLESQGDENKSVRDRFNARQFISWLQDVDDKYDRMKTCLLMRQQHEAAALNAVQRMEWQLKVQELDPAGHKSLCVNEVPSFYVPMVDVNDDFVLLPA
UniProt Q9NXR5: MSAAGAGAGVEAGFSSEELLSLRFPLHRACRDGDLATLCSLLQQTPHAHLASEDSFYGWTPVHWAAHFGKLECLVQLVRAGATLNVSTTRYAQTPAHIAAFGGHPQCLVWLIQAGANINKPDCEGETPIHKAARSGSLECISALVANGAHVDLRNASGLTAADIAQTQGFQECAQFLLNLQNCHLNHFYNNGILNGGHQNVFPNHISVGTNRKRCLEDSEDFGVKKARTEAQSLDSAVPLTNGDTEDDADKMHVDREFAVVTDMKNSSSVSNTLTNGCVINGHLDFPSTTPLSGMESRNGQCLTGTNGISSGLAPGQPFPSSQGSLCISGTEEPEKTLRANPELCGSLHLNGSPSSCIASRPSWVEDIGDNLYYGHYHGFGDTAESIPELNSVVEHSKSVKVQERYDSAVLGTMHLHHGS

Compound: C1=CC2=C(C=CC(=C2)/C=C\3/C(=O)NC(=NCC4=CC=CS4)S3)N=C1
Test: log2 fold change, soluble protein after heating vs DMSO (PISA); higher = thermal stabilisation; K562 lysate, 10 uM; active = over 0.2 and 3.5 SD of the protein, either way, in both replicates (recomputed)
How it was run: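 Following dounce homogenisation of K562 pellets in PBS pH 7.4 with 1 mM MgCl2, crude extract at 1 mg/mL protein was incubated for 30 min with 10 μM compound. Aliquots were then heated for 3 min over 48°C-58°C and pooled, NP-40 was added to 0.5% at 4°C, and soluble protein was recovered as the supernatant at 21,000xg for 90 min. Channel-sum-equalised TMTpro 16plex LC-MS/MS quantified this protein. Each value, from duplicates, is a log-two fold change in thermal stability relative to solvent controls.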

log2 fold change, inactive:
ALKBH1 (UniProt Q13686) 0.052, ANKRD52 (UniProt Q8NB46) -0.011, AMMECR1L (UniProt Q6DCA0) 0.028, ANKRD29 (UniProt Q8N6D5) -0.006, ALKBH6 isoform 2 (UniProt Q3KRA9) -0.019, AMBRA1 isoform 5 (UniProt Q9C0C7) 0.21, AKT1S1 isoform 3 (UniProt Q96B36) -0.03, ALDH18A1 (UniProt P54886) 0.02, ALDOA (UniProt H3BPS8) 0.004, ANGPTL4 (UniProt M0R3A2) 0.108, ANKH (UniProt Q9HCJ1) -0.014, AMFR (UniProt Q9UKV5) -0.114, ANO10 (UniProt Q9NW15) 0.047, ANKRD44 isoform 2 (UniProt Q8N8A2) -0.083, ANKRD46 (UniProt Q86W74) 0.174, ANKRD40 (UniProt Q6AI12) -0.143, AP1S1 (UniProt P61966) 0, AP4E1 (UniProt Q9UPM8) 0.035, AP3D1 isoform 2 (UniProt O14617) -0.162, ANKRD11 (UniProt Q6UB99) 0.034, ANXA13 isoform 2 (UniProt P27216) -0.019, AP2M1 (UniProt Q96CW1) 0.029, ANAPC16 (UniProt Q96DE5) -0.171, ANKRD10 (UniProt Q9NXR5) 0.009
